Assay results: US4705778A, “Orally active LHRH analogs” (SRI International, priority 1985, dated 1987)
At least one peptide structure holds a part that was inferred or is arguable (an end, a ring closure or a residue). Where a SMILES comes first, the peptide text is derived from it. [ ]: non-standard residue; d: D form. The star is where a group is joined. dPhe(4-Cl) = N[C@H](Cc1ccc(Cl)cc1)C(=O)O; d2Nal = N[C@H](Cc1ccc2ccccc2c1)C(=O)O; X2 = NC(=O)CC[C@@H](O)[C@@H]1CCCN1*; X3 = NC(=O)CC[C@H](O)[C@@H]1CCCN1*; X1 = NC(=O)CCC(=O)[C@@H]1CCCN1*; pGlu = O=C1CC[C@@H](C(=O)O)N1

How the values were obtained:
ovulation in rats = test: rat antiovulatory test (peptide given sc or orally at noon on the day of proestrus); assay type: in vivo; settings: for oral-to-sc ED100 ratio: antiovulatory ED100, oral versus sc
LHRH pituitary receptor = LHRH pituitary receptor binding assay
pregnancy in rats = test: 7-day post-coital pregnancy-inhibition assay in rats; assay type: in vivo, rat; settings: for Antiovulatory Activity (rats ovulating or pregnant/rats tested): agonist

## CC(=O)N[C@H](Cc1ccccc1)C(=O)N[C@H](Cc1ccc(Cl)cc1)C(=O)N[C@H](Cc1c[nH]c2ccccc12)C(=O)N[C@@H](CO)C(=O)N[C@@H](Cc1ccc(O)cc1)C(=O)N[C@H](CCCNC(=N)N)C(=O)N[C@@H](CC(C)C)C(=O)N[C@@H](CCCNC(=N)N)C(=O)N1CCC[C@H]1C(=O)CCC(N)=O [Material I, Ac[D-Phe^1, D-p-Cl-Phe^2, D-Trp^3, D-Arg^6, Pro-KmGly^9,10] LHRH] (Ac-[dF][dPhe(4-Cl)][dW]SY[dR]LR-X1)
Ovulation in rats; Boc-route material versus Fmoc-route material
  antiovulatory activity compared with Material II: lower antiovulatory activity
Ovulation in rats
  oral-to-sc ED100 ratio: ~ 100
Ovulation in rats; oral, relative to Std
  potency by oral administration compared with Std: more than twice as potent
Ovulation in rats; sc, relative to Std
  sc antiovulatory activity relative to Std: one-fifth
LHRH pituitary receptor
  LHRH pituitary receptor binding relative to Std: one-sixth

## CC(=O)N[C@H](Cc1ccccc1)C(=O)N[C@H](Cc1ccc(Cl)cc1)C(=O)N[C@H](Cc1c[nH]c2ccccc12)C(=O)N[C@@H](CO)C(=O)N[C@@H](Cc1ccc(O)cc1)C(=O)N[C@H](CCCNC(=N)N)C(=O)N[C@@H](CC(C)C)C(=O)N[C@@H](CCCNC(=N)N)C(=O)N1CCC[C@H]1C(=O)CCC(N)=O [Material II, [Ac--D-Phe^1, D-p-Cl--Phe^2, D-Trp^3, D-Arg^6,Pro^9 --KmGly^10] LHRH] (Ac-[dF][dPhe(4-Cl)][dW]SY[dR]LR-X1)
Ovulation in rats; 0.005 mg/rat sc
  Antiovulatory Activity (Rats ovulating/rats tested): 0 rats ovulating/rats tested
Ovulation in rats; 0.01 mg/rat sc
  Antiovulatory Activity (Rats ovulating/rats tested): 8/10
Ovulation in rats; 0.025 mg/rat sc
  Antiovulatory Activity (Rats ovulating/rats tested): 1/10
Ovulation in rats; 0.05 mg/rat sc
  Antiovulatory Activity (Rats ovulating/rats tested): 0/10
Ovulation in rats; 0.1 mg/rat sc
  Antiovulatory Activity (Rats ovulating/rats tested): 0/10
Ovulation in rats; 2.5 mg/rat po
  Antiovulatory Activity (Rats ovulating/rats tested): 1/6

## CC(C)C[C@H](NC(=O)[C@@H](Cc1ccc2ccccc2c1)NC(=O)[C@H](Cc1ccc(O)cc1)NC(=O)[C@H](CO)NC(=O)[C@H](Cc1c[nH]c2ccccc12)NC(=O)[C@H](Cc1c[nH]cn1)NC(=O)[C@@H]1CCC(=O)N1)C(=O)N[C@@H](CCCNC(=N)N)C(=O)N1CCC[C@H]1C(=O)CCC(N)=O [Material III, [D-Nal(2)^6, Pro^9 -KmGly^10] LHRH] ([pGlu]HWSY[d2Nal]LR-X1)
Pregnancy in rats; 0.001 mg/rat subcutaneous
  Antiovulatory Activity (rats ovulating or pregnant/rats tested): 1/10
Pregnancy in rats; 0.0025 mg/rat subcutaneous
  Antiovulatory Activity (rats ovulating or pregnant/rats tested): 0/10
Pregnancy in rats; 0.25 mg/rat oral
  Antiovulatory Activity (rats ovulating or pregnant/rats tested): 9/10
Pregnancy in rats; oral dose 250 times its sc ED100 dose
  inhibition of pregnancy after oral dose: did not produce significant inhibition of pregnancy
Pregnancy in rats; sc
  sc pregnancy-inhibiting activity relative to [D-Nal(2)^6 ] LHRH: approximately one-half

## CC(=O)N[C@H](Cc1ccccc1)C(=O)N[C@H](Cc1ccc(Cl)cc1)C(=O)N[C@H](Cc1c[nH]c2ccccc12)C(=O)N[C@@H](CO)C(=O)N[C@@H](Cc1ccc(O)cc1)C(=O)N[C@H](CCCNC(=N)N)C(=O)N[C@@H](CC(C)C)C(=O)N[C@@H](CCCNC(=N)N)C(=O)N1CCC[C@H]1[C@H](O)CCC(N)=O [Material IVR, [AC-D-Phe^1, D-p-Cl-Phe^2, D-Trp^3, D-Arg^6, Pro^9 -H2 Km(R)Gly^10] LHRH] (Ac-[dF][dPhe(4-Cl)][dW]SY[dR]LR-X2)
Ovulation in rats; 0.025 mg/rat sc
  Antiovulatory Activity (Rats ovulating/rats tested): 9/10
Ovulation in rats; 0.1 mg/rat sc
  Antiovulatory Activity (Rats ovulating/rats tested): 8/10
Ovulation in rats; stereochemistry at the hydroxyl carbon
  potency of R isomer compared with S isomer: much less potent than the S isomer

## CC(=O)N[C@H](Cc1ccccc1)C(=O)N[C@H](Cc1ccc(Cl)cc1)C(=O)N[C@H](Cc1c[nH]c2ccccc12)C(=O)N[C@@H](CO)C(=O)N[C@@H](Cc1ccc(O)cc1)C(=O)N[C@H](CCCNC(=N)N)C(=O)N[C@@H](CC(C)C)C(=O)N[C@@H](CCCNC(=N)N)C(=O)N1CCC[C@H]1[C@@H](O)CCC(N)=O [Material IVS, [Ac-D-Phe^1, D-p-Cl-Phe^2, D-Trp^3, D-Arg^6, Pro^9 -H2 Km(S)Gly^10] LHRH] (Ac-[dF][dPhe(4-Cl)][dW]SY[dR]LR-X3)
Ovulation in rats; 0.025 mg/rat sc
  Antiovulatory Activity (Rats ovulating/rats tested): 2/10
Ovulation in rats; 2.5 mg/rat po
  Antiovulatory Activity (Rats ovulating/rats tested): 7/10

## CC(=O)N[C@H](Cc1ccccc1)C(=O)N[C@H](Cc1ccc(Cl)cc1)C(=O)N[C@H](Cc1c[nH]c2ccccc12)C(=O)N[C@@H](CO)C(=O)N[C@@H](Cc1ccc(O)cc1)C(=O)N[C@H](CCCNC(=N)N)C(=O)N[C@@H](CC(C)C)C(=O)N[C@@H](CCCNC(=N)N)C(=O)N1CCC[C@H]1C(=O)NCC(N)=O [Std, [Ac--D-Phe^1, D-p-Cl--Phe^2, D-Trp^3, D-Arg^6] LHRH, reference compound] (Ac-[dF][dPhe(4-Cl)][dW]SY[dR]LRPG-NH2)
Ovulation in rats; 0.005 mg/rat sc
  Antiovulatory Activity (Rats ovulating/rats tested): 2/10
Ovulation in rats; 0.01 mg/rat sc
  Antiovulatory Activity (Rats ovulating/rats tested): 0/10
Ovulation in rats; 5.0 mg/rat po
  Antiovulatory Activity (Rats ovulating/rats tested): 5/10
Ovulation in rats
  oral-to-sc ED100 ratio: > 1000
